Reference: patent US20210395310A1, “Cyclic Peptide” (The University of Tokyo, priority 2018, published 2021)
These are yes or no findings as the source states them, for the method shown. Some results given as binding are weak or reduced against the parent protein; the word gives no strength.

The chains behind the UniProt entries cited, without tags or fusion partners. Where a name states a change or a piece, a line headed by the entry shows the natural chain unless it says otherwise. Residues count along the entry.
UniProt P08581, residues 25-932: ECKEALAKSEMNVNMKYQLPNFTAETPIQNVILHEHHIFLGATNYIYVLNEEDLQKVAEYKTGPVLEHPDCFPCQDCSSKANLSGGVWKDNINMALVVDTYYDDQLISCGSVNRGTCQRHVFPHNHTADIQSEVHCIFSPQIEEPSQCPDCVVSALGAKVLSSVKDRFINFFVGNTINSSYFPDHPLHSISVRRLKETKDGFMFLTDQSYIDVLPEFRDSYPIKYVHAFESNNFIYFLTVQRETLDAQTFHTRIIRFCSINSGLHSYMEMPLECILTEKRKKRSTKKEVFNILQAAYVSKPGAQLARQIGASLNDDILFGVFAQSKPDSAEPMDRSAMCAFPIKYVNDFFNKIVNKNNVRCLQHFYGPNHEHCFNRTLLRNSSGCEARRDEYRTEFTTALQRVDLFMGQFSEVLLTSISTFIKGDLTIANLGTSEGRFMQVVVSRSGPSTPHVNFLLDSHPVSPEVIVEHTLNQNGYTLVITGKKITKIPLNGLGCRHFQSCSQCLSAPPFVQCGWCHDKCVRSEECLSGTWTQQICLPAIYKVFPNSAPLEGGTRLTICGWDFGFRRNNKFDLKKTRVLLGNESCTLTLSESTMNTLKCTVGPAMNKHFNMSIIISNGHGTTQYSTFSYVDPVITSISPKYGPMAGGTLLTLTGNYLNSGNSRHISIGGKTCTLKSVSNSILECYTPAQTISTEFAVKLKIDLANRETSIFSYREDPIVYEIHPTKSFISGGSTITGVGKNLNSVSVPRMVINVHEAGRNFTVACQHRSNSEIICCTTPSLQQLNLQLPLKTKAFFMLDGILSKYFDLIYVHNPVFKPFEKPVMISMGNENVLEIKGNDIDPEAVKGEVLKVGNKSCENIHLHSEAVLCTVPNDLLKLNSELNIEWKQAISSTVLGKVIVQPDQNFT
UniProt P14210: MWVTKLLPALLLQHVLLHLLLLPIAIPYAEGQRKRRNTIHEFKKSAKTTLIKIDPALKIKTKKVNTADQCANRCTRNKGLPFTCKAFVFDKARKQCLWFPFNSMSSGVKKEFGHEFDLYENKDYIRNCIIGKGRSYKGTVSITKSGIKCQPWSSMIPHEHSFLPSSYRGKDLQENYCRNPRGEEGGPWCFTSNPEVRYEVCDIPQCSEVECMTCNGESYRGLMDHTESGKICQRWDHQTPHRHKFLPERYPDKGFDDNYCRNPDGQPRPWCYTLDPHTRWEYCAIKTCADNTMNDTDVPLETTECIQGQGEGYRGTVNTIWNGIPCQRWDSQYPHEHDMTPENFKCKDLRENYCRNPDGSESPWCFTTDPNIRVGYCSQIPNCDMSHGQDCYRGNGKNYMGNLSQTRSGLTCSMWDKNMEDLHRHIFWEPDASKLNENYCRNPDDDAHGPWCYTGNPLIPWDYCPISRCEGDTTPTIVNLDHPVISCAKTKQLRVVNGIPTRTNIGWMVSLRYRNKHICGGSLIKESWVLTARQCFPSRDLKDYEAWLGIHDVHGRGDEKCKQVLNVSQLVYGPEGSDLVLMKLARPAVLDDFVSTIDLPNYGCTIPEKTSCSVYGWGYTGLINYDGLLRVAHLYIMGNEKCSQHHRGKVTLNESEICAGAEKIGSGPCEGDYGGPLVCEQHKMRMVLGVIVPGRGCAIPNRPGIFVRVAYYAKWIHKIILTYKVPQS

Legend:
[1] = target: MET-extracellular domain-Fc fusion protein (product of R&D systems) (UniProt P08581); test: flow cytometry of MET-Fc on protein G beads incubated with rising fluorescein-HGF
[2] = target: His-labeled MET-ECD (UniProt P08581); test: SPR (Biacore 3000), HGF injected over His-labeled MET-ECD on an NTA chip

Substance	binding [1]	binding [2]
fluorescein-HGF (from UniProt P14210 32-728) (ligand)	binds	–
human hepatocyte growth factor (HGF), recombinant full-length, active two-chain form (from UniProt P14210 32-728) (ligand)	–	binds
